Some of the results follow.

Amino acid sequences for entries named in this document (tags omitted).
UniProt Q0JBA9, entry or part of it: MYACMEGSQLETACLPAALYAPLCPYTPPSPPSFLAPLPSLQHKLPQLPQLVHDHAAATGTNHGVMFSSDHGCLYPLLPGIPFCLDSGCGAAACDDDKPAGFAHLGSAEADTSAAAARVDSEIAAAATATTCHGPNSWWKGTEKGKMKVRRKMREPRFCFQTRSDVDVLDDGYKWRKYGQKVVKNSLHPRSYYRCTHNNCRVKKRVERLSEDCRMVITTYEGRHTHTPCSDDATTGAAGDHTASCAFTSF

This is an account of results in article PMC7819943, “Rice protein-binding microarrays: a tool to detect cis-acting elements near promoter regions in rice”.

The assay has as its target OsWRKY34 (Oryza sativa, UniProt Q0JBA9 1-250). Put plainly: protein-binding microarray (RPBM); PBS, 2% BSA, 51.3 ng/ul salmon testes DNA, 50 uM zinc acetate, 200 nM TF, 25 C, 1 h; high values mean tight binding. The conditions noted are these: protein: recombinant; tags: N-terminal polyhistidine and DsRed monomer fusion (pET32a); label: CyDye5-dUTP incorporated in the synthesized complementary strand; 3' TTTTT single-stranded linker to array surface; dsDNA, one strand shown. The essentials: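 The binding signal for each feature is its fluorescence intensity in arbitrary units. An Axon 4000B scanner was used to read a custom Agilent array that had been made double-stranded with Cy5-dUTP primer extension, blocked with 2% BSA, incubated at 25 °C for 1 h with 200 nM protein in PBS, 2% BSA, salmon testes DNA and 50 µM zinc acetate, and washed. The protein was an N-terminal polyhistidine–DsRed transcription factor fusion from E. coli BL21-CodonPlus, purified on Ni–NTA.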
As to “TTTATTCCGAATTATAACTGGTTTATTGAGCAAGCGCTTTCGGAGTCACCTAGTGCAG”, the binding signal was 11300 fluorescence intensity (a.u.). Next, “ATAAGACGAACGGTTAAAAATGTGCCAAAAAGTCAACGGCCGGAGTCACCTAGTGCAG”: 9640 fluorescence intensity (a.u.). Next, “TGTCTAGCTTACCTTGCTGCTGATTGCATGTCTAAAATGTCGGAGTCACCTAGTGCAG”: 9310 fluorescence intensity (a.u.); “GCCGGAGAAGGGGAAGGGGCTCTCTCTGGCGTGGGGCGTGCGGAGTCACCTAGTGCAG”: 11100 fluorescence intensity (a.u.). Regarding “CAATTCATTATGCATATTGTCGCACATTGTTGTTTTAGTCCGGAGTCACCTAGTGCAG”, the binding signal was 13000 fluorescence intensity (a.u.). Turning to “AGCTTATTTTTACCCGATGTACTTGCATGCTTAATTGATTCGGAGTCACCTAGTGCAG”, the binding signal was 11300 fluorescence intensity (a.u.). As for “TTTATCGCTTTGACTGTTCTACATCTTGCCTCGCCGTGCACGGAGTCACCTAGTGCAG”, the figure is 9040 fluorescence intensity (a.u.); as for “CGTTTCTCGTCGCGTCACGCTATCACCCTTGACATCATCACGGAGTCACCTAGTGCAG”, 14500 fluorescence intensity (a.u.); as for “TAGATTTGTTTTTTTATTTCTCCATGTATAAGTAGAGTTTCGGAGTCACCTAGTGCAG”, 9140 fluorescence intensity (a.u.). Regarding “ATATATGTTCTCTTAGTGTCTTTATTTTTAATATTTTTAACGGAGTCACCTAGTGCAG”, the binding signal was 8530 fluorescence intensity (a.u.). Take “AGAGTACTTTTGGGGTTACAAGTCAACATGAGTCAACACTCGGAGTCACCTAGTGCAG”: the binding signal is 8320 fluorescence intensity (a.u.). For “TGGTTGGTTCTTGTGTGTTCCTAAGCATGAAAAAAAATATCGGAGTCACCTAGTGCAG”, the binding signal is 12600 fluorescence intensity (a.u.). In the case of “CCAACTCTGCGATTAGCGCTTCTCAATCCCACCTCGAGAACGGAGTCACCTAGTGCAG”, the binding signal is 8470 fluorescence intensity (a.u.).

Turning to “ACTTATTCATTTTCTCTTATGCTCATCTGTACTTGGGCCGCGGAGTCACCTAGTGCAG”, the binding signal was 8150 fluorescence intensity (a.u.).

Regarding “ATCTCCCCTCCCGCGAGCAGCGGCGGCCGGCGACCTGCTGCGGAGTCACCTAGTGCAG”, the binding signal is 13000 fluorescence intensity (a.u.). In the case of “TTGGTTTGCACTGGTTTTGATAGTTGAGGGACCTGTTGTACGGAGTCACCTAGTGCAG”, the binding signal is 8090 fluorescence intensity (a.u.).

Consider “AGCGTCTGGTATATCGCCTCGTTACAGCTTTATGTGGGTCCGGAGTCACCTAGTGCAG”, for which the binding signal is 8480 fluorescence intensity (a.u.). As to “ACAACCACCTGGCCATGACATCGATCATACTCTAAAATCCCGGAGTCACCTAGTGCAG”, the binding signal was 8660 fluorescence intensity (a.u.). As for “CCCACCTTCTTACCGTAGCCCGCCCCTCGCGGCGTATAAACGGAGTCACCTAGTGCAG”, the figure is 9440 fluorescence intensity (a.u.). As for “TCTTCTTTCCTTTCTTTATTTCTCCCTTGCCTTGTTCGGCCGGAGTCACCTAGTGCAG”, the binding signal was 9530 fluorescence intensity (a.u.). For “TCGAACTAGTCACTTACTCATTTGATTCTCTGTTAGTCTGCGGAGTCACCTAGTGCAG”, the binding signal was 9250 fluorescence intensity (a.u.).

Turning to “GAAATAGAGATGTGGAGCCCCTGTTCACCAAACTTTCCATCGGAGTCACCTAGTGCAG”, the binding signal was 8100 fluorescence intensity (a.u.). For the sequence “GTCCACGCGGCGCGCCGCGGTTGACCCGCGTTGCCTCTCGCGGAGTCACCTAGTGCAG”, the binding signal is 8590 fluorescence intensity (a.u.).

Take “ATTCCTTTCTTCTCTCTATCCTCTCTGGCCCTGCGCGTATCGGAGTCACCTAGTGCAG”: the binding signal was 8110 fluorescence intensity (a.u.). As for “AACTCTGTCTCTCCTCTGCCTCAGCTCTGTTTCTCTTCGTCGGAGTCACCTAGTGCAG”, the binding signal is 14200 fluorescence intensity (a.u.).

Regarding “AGATCACGTGGGCCGCACGTTGCGTTGCAGTCCAATTTCACGGAGTCACCTAGTGCAG”, the binding signal was 8600 fluorescence intensity (a.u.). Next, “TTGCTTTGGTTTGGTTGGAGAAGGCATCAGCCTCAAGCCACGGAGTCACCTAGTGCAG”: 8380 fluorescence intensity (a.u.). For the sequence “GAGGGGAGGGTTATGAGAGTGAATTTTTTTTTATCATCTTCGGAGTCACCTAGTGCAG”, the binding signal was 8460 fluorescence intensity (a.u.).

“TCGTATAGTGTGTGATAATGCGTATGACTAGTGCTTGTTTCGGAGTCACCTAGTGCAG”: the binding signal was 11400 fluorescence intensity (a.u.). Take “GAGATCTCCCTGGTGAGCTTGTTGTTCTTCTTCAGTTCTTCGGAGTCACCTAGTGCAG”: the binding signal was 9910 fluorescence intensity (a.u.). Consider “GGTCGGGGTGGTCGTGCACGAGAGGGAATTTCCAGCGCTGCGGAGTCACCTAGTGCAG”, for which the binding signal is 11700 fluorescence intensity (a.u.). Next, “AACACATGGGCCCTGCCATTTTTACTATTCTATGTGTGTACGGAGTCACCTAGTGCAG”: 10300 fluorescence intensity (a.u.); “ATACGCCTTTTAACCCTAGTATCTATGCCGAAAGCATTTTCGGAGTCACCTAGTGCAG”: 8090 fluorescence intensity (a.u.); “CTCCGACTCTTGCCTCGGCCTCGACCGACTCTCCCGTCTCCGGAGTCACCTAGTGCAG”: 10300 fluorescence intensity (a.u.). In the case of “ATTTTGTTCTTTCTTGTTCTGACTTTTTTTCATAGTTTTACGGAGTCACCTAGTGCAG”, the binding signal was 10400 fluorescence intensity (a.u.). Take “ATCGGGCCGTCCATCCATCTCGCGTCACACGGTCCACCACCGGAGTCACCTAGTGCAG”: the binding signal is 8320 fluorescence intensity (a.u.). As for “ACTCGCGCCCTCACGCCCAAACCGAGCGAAATCGGTTCCCCGGAGTCACCTAGTGCAG”, the figure is 9360 fluorescence intensity (a.u.). In the case of “AGGGAGCTATACTTGTCGGTTCAGTTTTCCAGATCATTTTCGGAGTCACCTAGTGCAG”, the binding signal is 9410 fluorescence intensity (a.u.). For “GTCCACCACCACCGCGACACCCTTCTCCATGGAGGACTACCGGAGTCACCTAGTGCAG”, the binding signal was 8090 fluorescence intensity (a.u.).

For the sequence “CCTACGTGTTCGACGGAATGCCCAAGCCGTTTCACCCCTGCGGAGTCACCTAGTGCAG”, the binding signal was 8420 fluorescence intensity (a.u.).

On to “TTATTCAGCCAATTAACGTCGTCGATCCATGTCACTGACCCGGAGTCACCTAGTGCAG”, for which the binding signal is 8190 fluorescence intensity (a.u.). For “TAGCCGCGTACATCTCCGGGTTCACCGGGTTCCACGAGTTCGGAGTCACCTAGTGCAG”, the binding signal was 8160 fluorescence intensity (a.u.). On to “TGCTTTCGTTGGGTTGGGGAAGGGGAGGCGTCGCTTGGTCCGGAGTCACCTAGTGCAG”, for which the binding signal is 17100 fluorescence intensity (a.u.). As to “CTTTTGTTTCTTTTGATTGCCCGTTCTGAAAGTGATAAACCGGAGTCACCTAGTGCAG”, the binding signal was 9270 fluorescence intensity (a.u.).

Regarding “CTCGTGAACCCGCGGCCTTGCTCTCGTCTCGCCCTGGCGTCGGAGTCACCTAGTGCAG”, the binding signal was 10000 fluorescence intensity (a.u.).

For “CTTTTTTAAACATGTTTGACCGTTCGTCTTATTTAAAAAACGGAGTCACCTAGTGCAG”, the binding signal was 9350 fluorescence intensity (a.u.). Take “ATGTTTTAATTTTGGGCTTCTTTTTGTTTTGGGCTTTTATCGGAGTCACCTAGTGCAG”: the binding signal was 24300 fluorescence intensity (a.u.). Regarding “TGTGGGTTGGAGGGAGGAGGGGATTGAAGGGTTGTTAATTCGGAGTCACCTAGTGCAG”, the binding signal is 14900 fluorescence intensity (a.u.).

With “GCGGCCCGTCCTCTCCAATCGCTCTGCCGCCGCTTGCGCCCGGAGTCACCTAGTGCAG”, the binding signal is 11400 fluorescence intensity (a.u.). Regarding “TCATTTTTGGCCTTTTTTGGCTGTCTGTTCGGTTTTTTTTCGGAGTCACCTAGTGCAG”, the binding signal is 11300 fluorescence intensity (a.u.). Consider “ACCCCGGCATTGCTCTGCCCGTACACAAACTACCACACTACGGAGTCACCTAGTGCAG”, for which the binding signal was 9520 fluorescence intensity (a.u.). On to “GCATTAGAACGAGCGCACCCACTTTCAGTTCTCAAATTATCGGAGTCACCTAGTGCAG”, for which the binding signal was 8670 fluorescence intensity (a.u.).

For the sequence “ACCTTCGTCCTCGTCGCGCTCTACTACTACCGCTGCACGGCGGAGTCACCTAGTGCAG”, the binding signal is 13000 fluorescence intensity (a.u.). As for “GTGTTTATGCATGTCAGTAGTTTTAGTACAAGCAATTGTCCGGAGTCACCTAGTGCAG”, the figure is 8500 fluorescence intensity (a.u.).
